Primary screen of a compound library

By UniProt entry, the sequences of proteins in these tests, tags left out. Residues count along the entry.
UniProt Q4DA54, 1-478: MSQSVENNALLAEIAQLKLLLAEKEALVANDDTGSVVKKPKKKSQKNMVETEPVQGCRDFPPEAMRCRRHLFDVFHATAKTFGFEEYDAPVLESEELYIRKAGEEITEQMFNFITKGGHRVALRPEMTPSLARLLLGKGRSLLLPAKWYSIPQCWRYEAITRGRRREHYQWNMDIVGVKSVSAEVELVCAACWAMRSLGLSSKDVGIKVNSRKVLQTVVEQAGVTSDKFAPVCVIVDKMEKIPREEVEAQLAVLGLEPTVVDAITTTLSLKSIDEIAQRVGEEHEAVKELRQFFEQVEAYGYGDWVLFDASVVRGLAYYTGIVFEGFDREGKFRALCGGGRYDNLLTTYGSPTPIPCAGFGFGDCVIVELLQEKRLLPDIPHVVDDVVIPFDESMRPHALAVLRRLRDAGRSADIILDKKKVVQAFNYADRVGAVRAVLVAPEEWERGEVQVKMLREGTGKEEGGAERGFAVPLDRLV
UniProt A4I591, 1-473: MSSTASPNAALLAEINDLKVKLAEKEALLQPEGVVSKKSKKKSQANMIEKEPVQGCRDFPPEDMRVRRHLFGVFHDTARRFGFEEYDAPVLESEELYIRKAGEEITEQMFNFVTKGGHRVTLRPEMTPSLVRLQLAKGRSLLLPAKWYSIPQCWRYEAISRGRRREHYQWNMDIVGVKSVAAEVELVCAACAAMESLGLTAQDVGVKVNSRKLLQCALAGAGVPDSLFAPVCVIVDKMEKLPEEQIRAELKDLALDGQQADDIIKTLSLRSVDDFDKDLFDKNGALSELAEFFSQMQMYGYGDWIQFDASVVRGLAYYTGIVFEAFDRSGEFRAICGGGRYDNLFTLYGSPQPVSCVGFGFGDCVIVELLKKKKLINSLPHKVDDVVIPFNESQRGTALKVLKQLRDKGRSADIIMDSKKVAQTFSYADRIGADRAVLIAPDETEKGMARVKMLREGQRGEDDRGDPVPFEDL
UniProt P9WPC5, whole entry: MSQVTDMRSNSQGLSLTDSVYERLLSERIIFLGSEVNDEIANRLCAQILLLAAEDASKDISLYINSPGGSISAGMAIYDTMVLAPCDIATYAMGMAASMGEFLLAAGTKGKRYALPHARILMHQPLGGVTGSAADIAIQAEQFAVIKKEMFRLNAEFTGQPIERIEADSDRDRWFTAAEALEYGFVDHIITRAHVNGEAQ
UniProt P9WPC3, whole entry partner: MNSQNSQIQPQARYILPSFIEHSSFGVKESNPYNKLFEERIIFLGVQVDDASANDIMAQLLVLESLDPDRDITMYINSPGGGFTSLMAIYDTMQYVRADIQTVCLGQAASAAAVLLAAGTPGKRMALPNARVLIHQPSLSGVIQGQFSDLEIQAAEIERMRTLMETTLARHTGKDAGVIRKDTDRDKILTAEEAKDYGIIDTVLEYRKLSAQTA

Results are given as percent effect. The record does not define 0% and 100%; most values in the screen are far below 50% and negative numbers occur (in some assays of this library far below -100). This is an unselected part of the compounds tested. Two or more numbers in one place are separate tests of the same structure; such repeats can differ widely. A dash means the value is not listed here; it may have been measured.

Toxoplasma: 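Assay of Toxoplasma gondii numbers, read through their beta-galactosidase reporter with a colour substrate. Tested at 10 µM. The record gives no direction; the compounds picked for IC50 retests had high values, so higher reads as fewer parasites. Size under these conditions: about 67,000 compounds, about 260 of them at 50% or above in at least one test.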
Leishmania in macrophages: 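Cell assay of Leishmania donovani living inside macrophages; the read-out is not stated. Tested at 30 µM. Higher reads as stronger inhibition (inferred: compounds with an IC50 in retests scored well above the rest). About 69,000 compounds were tested under these conditions; 1.5% (about 1,000) showed 50% or more at least once.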
TcHisRS: 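Enzyme assay of histidyl-tRNA synthetase; the read-out is not stated. Target: Histidine-tRNA ligase, Trypanosoma cruzi CL Brener (UniProt Q4DA54). Tested at 30 µM. Direction is inferred from retests: higher values go with stronger inhibition. Size under these conditions: about 69,000 compounds, about 31 of them at 50% or above in at least one test.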
LiHisRS: 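Enzyme assay of histidyl-tRNA synthetase; the read-out is not stated. Target: Histidine-tRNA ligase, Leishmania infantum (UniProt A4I591). Concentration: 30 µM. Direction is inferred from retests: higher values go with stronger inhibition. The assay is labelled LdHisRS but filed under L. infantum. Of about 69,000 compounds tested this way, about 410 (0.6%) reached 50% or more in at least one test.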
ClpP1P2: 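Protease assay of ClpP1P2, read by the AMC dye that it sets free. Target: ClpP1P2, Mycobacterium tuberculosis (UniProt P9WPC5 and UniProt P9WPC3). Tested at 50 µM. Direction is inferred from only a few compounds that gave an IC50; most scored high, so higher reads as stronger inhibition. Most other retested compounds had strongly negative values. Size under these conditions: about 69,000 compounds, about 10 of them at 50% or above in at least one test.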
T. brucei: 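Whole-parasite assay of Trypanosoma brucei over 72 hours; the read-out is not stated. Concentration: 30 µM. The record gives no direction; compounds that gave an IC50 in retests scored well above the rest, so higher reads as stronger inhibition. Values scatter widely below zero; nearly all retest evidence comes from the higher of the two concentrations used. About 64,000 compounds were tested under these conditions; 1.5% (about 940) showed 50% or more at least once.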

| structure | Toxoplasma | Leishmania in macrophages | TcHisRS | LiHisRS | ClpP1P2 | T. brucei |
|---|---|---|---|---|---|---|
| `O=C(CCc1ccsc1)N1CCC(n2cc(CO)nn2)CC1` | 1.429 | 8.503 | 4.762 | 8.889 | -10.82 | 3.04 |
| `N#Cc1cccc(N2CCCC3(C2)CN(c2nncs2)CCO3)c1` (configuration not stated) | 4.515 | -14.01 & -8.59 | 4.301 | 4.425 | 9.786 | -82.14 |
| `CC(C(=O)Nc1ccc(N2CCOCC2)nc1)n1cncn1` (configuration not stated) | -33.38 | -7.167 | 5.233 | 14.29 | -1.661 | -4.438 |
| `c1ncn(CC2CCCCN2Cc2cn3ccsc3n2)n1` (configuration not stated) | -14.24 | -9.793 | -0.2933 | -0.9259 | -17.62 | -18.4 |
| `[H][C@@]12CS(=O)(=O)C[C@]1([H])N(C(=O)c1cc3ccccc3cn1)CCN2CCC` | -2.024 | 3.191 | - | - | - | 3.294 |
| `O=C(CN1CSCC1=O)NCC1CCN(c2ccccc2)C1` (configuration not stated) | -4.083 | 0.3023 | 0.5435 | 5.333 | -0.2174 | 3.847 |
| `CCC(CO)N(Cc1cccc(O)c1)Cc1ccccc1C` (configuration not stated) | 12.01 | 26.75 | 2.703 | -2.74 | -9.196 | -1.429 |
| `CSc1nc(C2CC2)nc(C)c1C(=O)NCc1cc(C)on1` | 5.625 | 25.69 | 6.173 | 21.51 | -6.483 | 12 |
| `O=C(NCCc1nc(-c2ccccn2)no1)c1ccc(C2CCCO2)s1` (configuration not stated) | -5.6 | 0.06562 | -4.348 | 21.21 | 1.218 | 24.66 |
| `CCCC(C#N)NC(=O)c1sccc1CC` (configuration not stated) | 3.565 | -10.01 | 2.01 | -1.176 | -2.763 | -14.36 |
| `Cc1nnc2n1CC(CNc1cnc3ccccc3n1)CC2` (configuration not stated) | -10.55 | -5.34 | 8.671 | 14.89 | -43.74 | -24.11 |
| `Cc1cncc(NC(=O)c2ccc(CN3CC[C@H](O)C3)cc2)c1` | 0.3352 | 8.652 | 7.179 | 10.2 | 0.1657 | -21.22 |
| `[H][C@@]12COC[C@]1([H])[C@@H](OCc1ccccn1)CN2C(=O)c1ccc[nH]1` | 2.079 | -14.58 | - | - | - | -54.04 |
| `Cc1noc(C)c1CN1C[C@H](C)[C@]2(CCN(Cc3cccnc3)C2=O)C1` | - | - | 11.06 | 21.1 | 8.38 | - |
| `Cc1cc(N2CCCN(Cc3ccc(C)o3)CC2)ccn1` | 10.88 | 24.73 | 3.279 | 13.7 | 4.462 | -30.09 |
| `O=C(NCc1cc(F)ccc1F)Nc1ccn(CC(F)F)n1` | 12.3 | 16.78 | 4.459 | 26.76 | 0.3007 | -38.58 |
| `CC(C)(N)C(=O)N1CCCC1c1cncc(Oc2ccc(F)cc2)n1` (configuration not stated) | -4.019 | 14.35 | -1.075 | 17.14 | -3.607 | 21.98 |
| `O=C(C1CC1)N1CCC2(CCN(Cc3cccc(F)c3)CC2)CC1.O=C(O)C(F)(F)F` | -0.4926 | 15.5 | - | - | - | -6.03 |
| `COc1cc([C@@H]2N[C@H](c3nccs3)Cc3ccsc32)cc(OC)c1OC` | 27.34 | 27.76 | 2.273 | 8.451 | -13.37 | -6.656 |
| `CCNC(=O)[C@@H]1C[C@H](N)CN1Cc1ccc2cccc(Cl)c2n1` | -0.4142 | 18.44 | 15.76 | 8 | -3.198 | 12.68 |
| `Cc1ccc(CN2CCO[C@@H]3[C@@H](OCc4cccnc4)CC[C@@H]32)o1` | - | - | 3.315 | 11.71 | -4.016 | - |
| `[H][C@]12CCC[C@@]1(COCc1csc(C)n1)CN(Cc1cnn(C)c1)C2` | -0.9031 | 33.3 | - | - | - | -70.71 |
| `CC(C)C(Sc1nnc(C2CC2)n1C1CC1)C(=O)NCc1cccnc1` (configuration not stated) | 1.588 | 11.92 | 0 | 10.96 | -8.823 | 19.62 |
| `CCn1c2c(ccc1=O)CC(N)CC2` (configuration not stated) | -13.36 | -9.304 | 4.854 | 3.883 | -2.111 | -8.96 |
| `COc1ccccc1C1Cn2c(C)cnc2CN1Cc1ccc(C)nc1` (configuration not stated) | -11.05 | -4.214 | 13.91 | 11.35 | -18.91 | - |
| `Nc1cc2c(nn1)CCN(C(=O)c1cccc3c1OCO3)C2` | 12.95 | 5.86 | 10.29 | 26.92 | -15.03 | - |
| `CCCN1CCc2c(C(=O)N(C)Cc3ccccn3)nn(C)c2C1.O=C(O)C(F)(F)F.O=C(O)C(F)(F)F.O=C(O)C(F)(F)F` | -3.989 | 23.46 | - | - | - | -70.65 |
| `Cc1[nH]c2c(F)cccc2c1CC(=O)NCCCc1csc(N)n1` | -1.379 | -18.84 | -4.523 | 13.6 | -0.1506 | -18.54 |
| `CN(CC1CC1)C(=O)Cc1csc(-c2ncccn2)n1` | 3.558 | 39.01 | 6.952 | 3.665 | -2.41 | -8.069 |
| `Cc1nc(CO[C@@H]2CN(Cc3ccc(F)cc3)[C@@H]3COC[C@@H]32)cs1` | - | - | 2.632 | 14.52 | -18.61 | - |
| `COC(=O)C1=NOC(Cc2cc(OC)c3c(c2)OCO3)C1` (configuration not stated) | -13.9 | -3.014 | 6.931 | 2.381 | -4.014 | -29.14 |
| `Cc1cnn(CC(C)NCc2cccnc2)c1` (configuration not stated) | -1.498 | -2.882 | 2.128 | -41.43 | -8.726 | -7.936 |
| `O=C(CSc1ccccn1)NCc1ccc2c(c1)CCC(=O)N2` | 1.68 | -30.04 | -7.522 | 13.27 | -2.344 | -30.84 |
| `[H][C@]12CN(CCN3CCCC3=O)CC[C@@]1(O)CCN(c1ccc(C)nn1)C2` | -2.53 | 12.78 | - | - | - | -4.007 |
| `CC(C)(NCC(=O)N1CCCC(C(N)=O)C1)c1ccc(Cl)cc1` (configuration not stated) | -0.06242 | 32.72 | 6.952 | 6.806 | 1.631 | 11.01 |
| `Cc1nnc2n1CCN(CC(=O)N1CCc3ccccc3C1)C2` | -3.281 | -29.76 | 0.5917 | 1.786 | 15.77 | -46.25 |
| `COc1c(F)cc(NCC(=O)NC(C)(C#N)C2CC2)cc1F` (configuration not stated) | 1.294 | 8.517 | 10.83 | 21.13 | 4.814 | 44.62 |

Repeated from the top, 4 entries:

* O=C(CCc1ccsc1)N1CCC(n2cc(CO)nn2)CC1 : Toxoplasma: 1.429%; Leishmania in macrophages: 8.503%; TcHisRS: 4.762%; LiHisRS: 8.889%; ClpP1P2: -10.82%; T. brucei: 3.04%
* N#Cc1cccc(N2CCCC3(C2)CN(c2nncs2)CCO3)c1 (configuration not stated) : Toxoplasma: 4.515%; Leishmania in macrophages: -14.01% & -8.59%; TcHisRS: 4.301%; LiHisRS: 4.425%; ClpP1P2: 9.786%; T. brucei: -82.14%
* CC(C(=O)Nc1ccc(N2CCOCC2)nc1)n1cncn1 (configuration not stated) : Toxoplasma: -33.38%; Leishmania in macrophages: -7.167%; TcHisRS: 5.233%; LiHisRS: 14.29%; ClpP1P2: -1.661%; T. brucei: -4.438%
* c1ncn(CC2CCCCN2Cc2cn3ccsc3n2)n1 (configuration not stated) : Toxoplasma: -14.24%; Leishmania in macrophages: -9.793%; TcHisRS: -0.2933%; LiHisRS: -0.9259%; ClpP1P2: -17.62%; T. brucei: -18.4%

Data taken from ChEMBL document CHEMBL3988442, “University of Dundee, Small-Polar-MMV Screening Library” (2021).